Experimental data: PubChem BioAssay AID720505 (Drosophila RNAi Screening Center, 2013)

Screen: 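Fly regulators or components of the CRAC channel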 (primary screen)
Cell system: Drosophila S2R+ cells
Knock-down reagent: long dsRNA against Drosophila genes
Challenge: thapsigargin (2 µM) in calcium-free buffer to empty internal stores, then 2 mM calcium added back
Detection: 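Fluo-4 signal in 384-well plates read on a FLIPR after thapsigargin (2 µM, calcium-free) store depletion and 2 mM calcium add-back; unnormalised mean endpoint per well; screen run twice, selected wells retested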
Direction: calcium signal: higher = more calcium entry after store depletion
Hit rule: 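Knock-downs counted as hits when calcium entry dropped relative to STIM1 positive and Rho1 negative controls present on each plate; roughly 1500 genes called, with reductions of differing size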
Calls: active = called as lowering calcium entry; inactive = not called
The deposit covers about 20,000 reagents; shown is an unselected part of those with a known target gene and a result. Over the whole deposit, about 2,100 (10%) are marked active. 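Raw plate signals without normalisation; calls rest on control-based scores that were not deposited; replicate 2 separates called from uncalled poorly.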 Not given: the amount of reagent, the time to read-out.

Against RpL9 [DRSC03418] the deposit lists calcium signal, replicate 1 = 119; calcium signal, replicate 2 = 108; inactive. ru [DRSC08258] gave calcium signal, replicate 1 = 107; calcium signal, replicate 2 = 139; inactive. Knock-down of CG12983 [DRSC11692] resulted in: calcium signal, replicate 1 = 99.1; calcium signal, replicate 2 = 94.4; inactive. For AlaRS [DRSC01851] the deposit lists calcium signal, replicate 1 = 81.8; calcium signal, replicate 2 = 251; inactive. After knock-down of Vps29 [DRSC00666] the results were calcium signal, replicate 1 = 95.3; calcium signal, replicate 2 = 184; inactive. Depletion of obst-J [DRSC10821] gave: calcium signal, replicate 1 = 99.2; calcium signal, replicate 2 = 95.2; inactive.

Knock-down of CG42724 [DRSC12567] came out at: calcium signal, replicate 1 = 126; calcium signal, replicate 2 = 170; inactive. After knock-down of CG42724 [DRSC22275], the record shows calcium signal, replicate 1 = 88.8; calcium signal, replicate 2 = 188; inactive. Silencing of Sbat [DRSC00160] gave: calcium signal, replicate 1 = 74.2; calcium signal, replicate 2 = 176; inactive. Against CG13721 [DRSC08330] the deposit lists calcium signal, replicate 1 = 75.9; calcium signal, replicate 2 = 67.8; inactive. Cpes [DRSC04475] gave calcium signal, replicate 1 = 79.9; calcium signal, replicate 2 = 103; inactive. After knock-down of cv-d [DRSC16522], the screen gave calcium signal, replicate 1 = 121; calcium signal, replicate 2 = 199; inactive.

With knock-down of cv-d [DRSC16524] the results were calcium signal, replicate 1 = 131; calcium signal, replicate 2 = 276; inactive. Against cv-d [DRSC16526], the entry reads calcium signal, replicate 1 = 127; calcium signal, replicate 2 = 195; inactive. With knock-down of jumu [DRSC16651], the record shows calcium signal, replicate 1 = 158; calcium signal, replicate 2 = 121; inactive. Knock-down of Gen [DRSC09679] gave: calcium signal, replicate 1 = 67.2; calcium signal, replicate 2 = 94; active. After knock-down of CG1662 [DRSC19754] the results were calcium signal, replicate 1 = 117; calcium signal, replicate 2 = 122; inactive. Silencing of AstCC [DRSC02404] came out at: calcium signal, replicate 1 = 155; calcium signal, replicate 2 = 146; inactive.

Knock-down of Ir60b [DRSC04217] gave: calcium signal, replicate 1 = 114; calcium signal, replicate 2 = 138; inactive. Depletion of CG10151 [DRSC05974] resulted in: calcium signal, replicate 1 = 163; calcium signal, replicate 2 = 119; inactive. Against Cyp301a1 [DRSC07365] the deposit lists calcium signal, replicate 1 = 140; calcium signal, replicate 2 = 273; inactive. With knock-down of Syngr [DRSC06003], the record shows calcium signal, replicate 1 = 98.9; calcium signal, replicate 2 = 160; inactive. CG6067 [DRSC18399] scored calcium signal, replicate 1 = 253; calcium signal, replicate 2 = 131; inactive. Against CG3906 [DRSC04431] the deposit lists calcium signal, replicate 1 = 162; calcium signal, replicate 2 = 102; inactive.

Knock-down of Rpt4 [DRSC18713] resulted in: calcium signal, replicate 1 = 96.9; calcium signal, replicate 2 = 87.5; active. CG8209 [DRSC10970] gave calcium signal, replicate 1 = 88.1; calcium signal, replicate 2 = 57.3; inactive. Silencing of Cpr65Ec [DRSC11025] came out at: calcium signal, replicate 1 = 110; calcium signal, replicate 2 = 90; inactive. Against Erasp [DRSC07111] the deposit lists calcium signal, replicate 1 = 135; calcium signal, replicate 2 = 121; inactive.

Targets above whose target name begins with S or s:
Sbat [DRSC00160] | calcium signal, replicate 1: 74.2; calcium signal, replicate 2: 176; activity call: inactive
Syngr [DRSC06003] | calcium signal, replicate 1: 98.9; calcium signal, replicate 2: 160; activity call: inactive
